HELM strings list residues between dots; [ac] is acetyl, [am] amide, other brackets name non-standard units. Non-standard residues stand in square brackets, D forms with d. *: point of attachment. pGlu = O=C1CC[C@@H](C(=O)O)N1; Cbz = O=C(OCc1ccccc1)*; Boc = CC(C)(C)OC(=O)*; OtBu = CC(C)(C)O*
assay: general procedure: solution-phase peptide synthesis; DCC/HONB (ONB active esters); details: coupling step

Row | Substance | step yield [%]
1 | Cbz-K(Boc)SQ[dS]GSN-OtBu | 92.2
2 | Cbz-K(Boc)SQ[dF]GSN-OtBu | 92.2
3 | [pGlu][dA]K(Boc)SQG[dA]SN-OtBu | 93
4 | [pGlu]AK(Boc)SQ[dL]GSN-OtBu | 97.6
5 | Cbz-AK(Boc)SQ[dL]GSN-OtBu | 77.2
6 | Cbz-[dA]K(Boc)SQG[dA]SN-OtBu | 81
7 | Cbz-SQGGSN-OtBu | 83.9
8 | [pGlu]AK(Boc)SQG[dL]SN-OtBu | 80
9 | [pGlu]AK(Boc)SQG[dA]SN-OtBu | 91
10 | Cbz-[dA]K(Boc)SQ[dL]GSN-OtBu | 81.3
11 | Cbz-SQ[dA]GSN-OtBu | 87
12 | Cbz-SQG[dA]SN-OtBu | 81
13 | [pGlu]AK(Boc)SQ[dS]GSN-OtBu | 83.0
14 | Cbz-SQ[dS]GSN-OtBu | 83.7
15 | Cbz-AK(Boc)SQ[dA]GSN-OtBu | 87
16 | Cbz-SQ[dL]G-OtBu | 51.4
17 | Cbz-SQ[dS]G-OtBu | 68.4
18 | Cbz-SQ[dL]GSN-OtBu | 82.1

Row | Substance | step yield [%]
19 | Cbz-AK(Boc)SQG[dL]SN-OtBu | 72
20 | [pGlu][dA]K(Boc)SQ[dL]GSN-OtBu | 90.7
21 | Cbz-AK(Boc)SQG[dA]SN-OtBu | 82
22 | [pGlu]AK(Boc)SQ[dA]GSN-OtBu | 80
23 | Cbz-K(Boc)SQG[dL]SN-OtBu | 88
24 | Cbz-K(Boc)SQG[dA]SN-OtBu | 83
25 | Cbz-SQ[dA]G-OtBu | 97
26 | [pGlu]AK(Boc)SQ[dF]GSN-OtBu | 92.4
27 | Cbz-K(Boc)SQ[dA]GSN-OtBu | 80
28 | Cbz-K(Boc)SQGGSN-OtBu | 86.2
29 | [pGlu][dA]K(Boc)SQGGSN-OtBu | 78
30 | Cbz-AK(Boc)SQ[dS]GSN-OtBu | 86.1
31 | Cbz-SQ[dF]GSN-OtBu | 86.2
32 | Cbz-SQ[dF]G-OtBu | 45.2
33 | Cbz-SQG[dL]SN-OtBu | 87
34 | Cbz-K(Boc)SQ[dL]GSN-OtBu | 75.2
35 | Cbz-AK(Boc)SQ[dF]GSN-OtBu | 86.3

same assay, conditions: late stage modification step

Row | Substance | step yield [%]
36 | PEPTIDE1{[Glp].[dA].K.S.Q.G.G.S.N}$$$$V2.0 | 68
37 | Cbz-SQ[dF]G-OH | 98.4
38 | Cbz-SQ[dA]G-OH | 85
39 | [pGlu]AKSQG[dL]SN-OH | 58
40 | [pGlu][dA]KSQG[dA]SN-OH | 34
41 | Cbz-SQ[dS]G-OH | 93.8
42 | PEPTIDE1{[Glp].A.K.S.Q.G.[dA].S.N}$$$$V2.0 | 62
43 | PEPTIDE1{[Glp].A.K.S.Q.[dA].G.S.N}$$$$V2.0 | 34
44 | Cbz-SQ[dL]G-OH | 100
